In patent publication US11629171B2 (POLYPHOR AG, priority 2017, dated 2023):

Assay: general procedure: Fmoc solid-phase peptide synthesis; 2-chlorotrityl resin (polystyrene crosslinked with 1-5% divinylbenzene)
Settings: whole synthesis, HPLC-MS
In the case of “PEPTIDE1{[ac].V.C.S.[Dab].E.[D-Dab].[Hse].W.S.Y.C.V.[am]}|PEPTIDE2{[Dab].T.[Dab].[Dab].[Dab].[dL].L.[Dab].[Dab].T}$PEPTIDE1,PEPTIDE1,3:R3-12:R3|PEPTIDE1,PEPTIDE2,6:R3-1:R1|PEPTIDE2,PEPTIDE2,4:R3-10:R2$$$V2.0”, the “final HPLC purity” value is reported as 71%. For “PEPTIDE1{[ac].V.[Orn].Y.[Dab].E.[D-Dab].[Hse].W.S.V.[dT]}|PEPTIDE2{[Dab].T.[Dap].[Dab].[Dab].[dL].L.[Dab].[Dab].T}$PEPTIDE1,PEPTIDE1,3:R3-12:R2|PEPTIDE1,PEPTIDE2,6:R3-1:R1|PEPTIDE2,PEPTIDE2,4:R3-10:R2$$$V2.0”, the “final HPLC purity” value was 95%. With “PEPTIDE1{[ac].V.C.Y.[Dap].E.[D-Dab].S.W.S.[tBuGly].C.S.[am]}|PEPTIDE2{[Dab].T.[Dap].[Dab].[Dab].[dL].L.[Dab].[Dab].T}$PEPTIDE1,PEPTIDE1,3:R3-12:R3|PEPTIDE1,PEPTIDE2,6:R3-1:R1|PEPTIDE2,PEPTIDE2,4:R3-10:R2$$$V2.0” the “final HPLC purity” value was 95%. In the case of “PEPTIDE1{[HOVal].C.T.[Dab].E.[D-Dab].[Hse].W.S.[tBuGly].C.[Tyrol]}|PEPTIDE2{[Dab].T.[Dab].[Dab].[Dab].[dL].L.[Dab].[Dab].T}$PEPTIDE1,PEPTIDE1,2:R3-11:R3|PEPTIDE1,PEPTIDE2,5:R3-1:R1|PEPTIDE2,PEPTIDE2,4:R3-10:R2$$$V2.0”, the “final HPLC purity” value is reported as 82%. With “PEPTIDE1{[ac].V.[Orn].Y.S.E.[D-Dab].[Hse].W.S.[tBuGly].[dY]}|PEPTIDE2{[Dab].T.[Dap].[Dab].[Dab].[dL].L.[Dab].[Dab].T}$PEPTIDE1,PEPTIDE1,3:R3-12:R2|PEPTIDE1,PEPTIDE2,6:R3-1:R1|PEPTIDE2,PEPTIDE2,4:R3-10:R2$$$V2.0” the “final HPLC purity” value was 83%. In the case of “PEPTIDE1{[HOVal].C.Y.E.E.[D-Dab].T.W.[Dap].[tBuGly].C.[Throl]}|PEPTIDE2{[Dab].T.[Dab].[Dab].[Dab].[dL].L.[Dab].[Dab].T}$PEPTIDE1,PEPTIDE1,2:R3-11:R3|PEPTIDE1,PEPTIDE2,5:R3-1:R1|PEPTIDE2,PEPTIDE2,4:R3-10:R2$$$V2.0”, the “final HPLC purity” value is reported as 87%. For “PEPTIDE1{[6MeHeptA].V.C.Y.[Dab].E.[D-Dab].[Hse].W.[Hse].V.C.S.[am]}|PEPTIDE2{[Dab].T.[Dab].[Dab].[Dab].[dL].L.[Dab].[Dab].T}$PEPTIDE1,PEPTIDE1,3:R3-12:R3|PEPTIDE1,PEPTIDE2,6:R3-1:R1|PEPTIDE2,PEPTIDE2,4:R3-10:R2$$$V2.0”, the “final HPLC purity” value was 92%.

Some peptides are written in HELM: one residue between dots, names in brackets for other building blocks, links after the first $.
